Consider 2 molecules from publication PMC11923891.

Results are given in words; binding and its absence hold for the method and conditions named. In cells and extracts the contact can be indirect. Some binding calls cover weakened binding; strength is not graded here. Where a sequence is shown, tags or fusion partners need not be part of it.

Assay [1] addresses T1, Flag-TRIM35 (tripartite motif 35) (UniProt Q9UPQ4).
T1 sequence: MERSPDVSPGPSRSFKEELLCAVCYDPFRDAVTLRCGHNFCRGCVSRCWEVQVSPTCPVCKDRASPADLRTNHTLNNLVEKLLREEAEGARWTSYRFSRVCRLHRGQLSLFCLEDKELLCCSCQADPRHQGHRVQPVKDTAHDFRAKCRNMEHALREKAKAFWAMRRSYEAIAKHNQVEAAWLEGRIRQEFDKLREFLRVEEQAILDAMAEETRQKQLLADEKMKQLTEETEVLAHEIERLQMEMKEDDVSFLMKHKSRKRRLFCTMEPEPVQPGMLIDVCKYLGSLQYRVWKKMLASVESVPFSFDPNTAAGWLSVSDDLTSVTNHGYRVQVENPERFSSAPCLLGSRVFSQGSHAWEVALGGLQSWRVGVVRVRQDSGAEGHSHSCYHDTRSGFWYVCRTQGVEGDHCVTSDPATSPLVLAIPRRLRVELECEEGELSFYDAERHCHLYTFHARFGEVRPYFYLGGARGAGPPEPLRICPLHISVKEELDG
Put plainly: co-IP; HUVEC transfected with Flag-TRIM35 and HA-RelB; lysates incubated with anti-Flag or anti-HA conjugated magnetic beads overnight at 4 °C; washed with IP lysis buffer (50mM Tris pH 7.5, 150mM NaCl, 1mM EDTA, 0.1% NP-40); Western blotting.

Assay [2] deals with T2, GST-TRIM35 fusion protein (UniProt Q9UPQ4).
T2 sequence: T1 sequence
Put plainly: pull-down; GST pull-down: purified GST-TRIM35 incubated with cell lysate containing His-RelB and GST-beads; the methods say His-RelB from 293FT lysate was enriched on His-tag beads, which were then incubated with recombinant GST-TRIM35 at room temperature for 1 h; immunoblotting; only the target purified. For orientation: Immunoblotting shows a protein as a band on a membrane.

B1: HA-RelB (protein, UniProt Q01201 1-579)
chain: MLRSGPASGPSVPTGRAMPSRRVARPPAAPELGALGSPDLSSLSLAVSRSTDELEIIDEYIKENGFGLDGGQPGPGEGLPRLVSRGAASLSTVTLGPVAPPATPPPWGCPLGRLVSPAPGPGPQPHLVITEQPKQRGMRFRYECEGRSAGSILGESSTEASKTLPAIELRDCGGLREVEVTACLVWKDWPHRVHPHSLVGKDCTDGICRVRLRPHVSPRHSFNNLGIQCVRKKEIEAAIERKIQLGIDPYNAGSLKNHQEVDMNVVRICFQASYRDQQGQMRRMDPVLSEPVYDKKSTNTSELRICRINKESGPCTGGEELYLLCDKVQKEDISVVFSRASWEGRADFSQADVHRQIAIVFKTPPYEDLEIVEPVTVNVFLQRLTDGVCSEPLPFTYLPRDHDSYGVDKKRKRGMPDVLGELNSSDPHGIESKRRKKKPAILDHFLPNHGSGPFLPPSALLPDPDFFSGTVSLPGLEPPGGPDLLDDGFAYDPTAPTLFTMLDLLPPAPPHASAVVCSGGAGAVVGETPGPEPLTLDSYQAPGPGDGGTASLVGSNMFPNHYREAAFGGGLLSPGPEAT
On to B1, for which the binding entry in assay [1] is “binds”.

B2: His-RelB (protein, UniProt Q01201 1-579)
chain: B1 chain
Regarding B2, the binding result in assay [2] is listed as “binds”.
